{"source": "paper PMC12040169", "about": "(PLOS Biology, 2025)", "note": "The other results are listed elsewhere or left out.", "data": [{"system": "T1, CTL2-GFP (C. trachomatis L2/434/Bu, GFP-expressing)", "T1 construct": "L2/434/Bu, GFP-expressing", "design": "species or system HeLa; Intracellular C. trachomatis growth in HeLa cells, bulk GFP fluorescence relative to DMSO", "conditions": "bulk GFP, single well; 28.5 h, 10 µM; inhibitor", "units": {"% of control remaining": "%"}, "values": [{"compound": "CC(C)(C)c1ccc(C(=O)N2CCN(C(=O)CN3CCOCC3)C2)cc1", "note": "[CBK051554C]", "% of control remaining": 94.5932}, {"compound": "O=C(CSCc1ccc(Cl)cc1Cl)Nc1c[nH]c(=O)[nH]c1=O", "note": "[CBK126912]", "% of control remaining": 91.1994}, {"compound": "CC(=O)c1sccc1NS(=O)(=O)c1ccc2ccccc2c1", "note": "[CBK200042]", "% of control remaining": 123.961}, {"compound": "CN1C[C@@H](NC(=O)Nc2ccccc2)C[C@H]1c1nc(-c2cccnc2)no1", "note": "[CBK288858]", "% of control remaining": 140.548}, {"compound": "CC(C)(C)C(=O)CSc1nnc(-c2ccccn2)s1", "note": "[CBK006894]", "% of control remaining": 110.178}, {"compound": "Cc1cccc(-c2csc3c(=O)[nH]c(N4CCC(C(=O)NCc5cccnc5)CC4)nc23)c1", "note": "[CBK215624]", "% of control remaining": 137.142}, {"compound": "COc1ccc2[nH]c3c(c2c1)CCNC31CCN(CC(=O)C(C)(C)C)CC1", "note": "[CBK039471]", "% of control remaining": 210.728}, {"compound": "CNCc1cn(C[C@H]2CC3CCN2C[C@@H]3C(=O)N2CCCC2)nn1", "note": "(stereo partly shown) [CBK289087]", "% of control remaining": 122.903}, {"compound": "CCn1cc(S(=O)(=O)N2CCC3(CC2)OCCO3)cn1", "note": "[CBK270321]", "% of control remaining": 83.3061}, {"compound": "COc1cc(NS(=O)(=O)c2ccc(NC(=O)c3cccnc3)cc2)ncn1", "note": "[CBK268156]", "% of control remaining": 70.5854}, {"compound": "CCC(=O)c1cccc2c1NC=C1C(=O)CC(C)(C)CC1=N2", "note": "[CBK265821]", "% of control remaining": 144.331}, {"compound": "CN1CCCN(c2cncc(-c3ccc(F)c(Cl)c3)n2)CC1", "note": "[CBK065297]", "% of control remaining": 154.358}, {"compound": "Cn1nccc1NS(=O)(=O)c1ccc(F)cc1", "note": "[CBK050484]", "% of control remaining": 86.2989}, {"compound": "CC(C)CNc1nccnc1-c1cccc(C=O)c1", "note": "[CBK088744]", "% of control remaining": 208.339}, {"compound": "CN1CCN(c2ccc(NC(=O)c3cccc(-c4cc5ccccc5oc4=O)c3)cc2Cl)CC1", "note": "[CBK269689]", "% of control remaining": 152.242}, {"compound": "CC1=C[C@@H](CNC(=O)c2ccccc2)[C@H](C(C)C)C[C@H]1CC(=O)O", "note": "[CBK289213]", "% of control remaining": 142.344}, {"compound": "CC(=O)c1ccc2c3c(cccc13)CC(N(C)C)C2", "note": "(stereo not shown) [CBK005691S]", "% of control remaining": 139.674}, {"compound": "O=C(Nc1cccc(CCc2ccncc2)c1)C1CC(=O)N(Cc2ccncc2)C1", "note": "(stereo not shown) [CBK286287]", "% of control remaining": 127.438}, {"compound": "COc1ccc(-n2c(=O)[nH]cc(C(=O)N3CCc4ccccc43)c2=O)cc1OC", "note": "[CBK287555]", "% of control remaining": 151.443}, {"compound": "CC1CCN(C(=O)CSc2ccc3nnc(-c4ccccc4)n3n2)CC1", "note": "[CBK287512]", "% of control remaining": 137.628}, {"compound": "O=C(CSCc1ccc(Cl)cc1Cl)Nc1ccc(O)cc1C(=O)O", "note": "[CBK275322]", "% of control remaining": 136.783}, {"compound": "CC(C)C(=O)N1CC2(CCN(CC3COc4ccccc4O3)CC2)c2ccccc21", "note": "(stereo not shown) [CBK143946]", "% of control remaining": 101.455}]}]}
